The list shows a part of the results.
What was measured:
Experiment in all cases: log2 fold change, soluble protein after heating vs DMSO (PISA); higher = thermal stabilisation; K562 cells, 10 uM, 30 min; active = over 0.2 and 3.5 SD of the protein, either way, in both replicates (recomputed)
[1] = compound: CS(=O)(=O)c1ccc(-c2cnc(N)c(C(=O)Nc3ccccc3)n2)cc1
Outline: (§1)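 Aliquots of K562 cells (2×10^6 cells/mL) treated with 10 μM compound for 30 min were heated for 3 min over 48°C-58°C. After pooling and extraction in PBS with 0.5% NP-40 at 4°C, soluble protein from a 21,000xg, 90 min spin was quantified by TMTpro 16plex LC-MS/MS with channel sums equalised. Thermal stability is expressed against control samples, from duplicates, as a log2 fold change.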

Chains of the proteins cited; added tags and fusions are not shown. Lines headed by an entry give the natural chain unless they say otherwise; changes in a name come on top.
UniProt Q9Y259: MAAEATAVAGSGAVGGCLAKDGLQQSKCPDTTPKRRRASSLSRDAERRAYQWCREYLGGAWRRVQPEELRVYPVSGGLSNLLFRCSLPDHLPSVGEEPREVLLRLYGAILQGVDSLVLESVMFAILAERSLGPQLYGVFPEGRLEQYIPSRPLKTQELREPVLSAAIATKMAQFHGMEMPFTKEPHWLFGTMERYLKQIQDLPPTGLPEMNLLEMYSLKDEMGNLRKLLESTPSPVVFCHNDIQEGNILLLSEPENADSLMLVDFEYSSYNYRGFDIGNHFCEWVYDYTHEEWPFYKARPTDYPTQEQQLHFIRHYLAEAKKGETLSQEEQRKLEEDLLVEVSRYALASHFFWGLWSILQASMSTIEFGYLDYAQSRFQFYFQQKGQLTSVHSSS
UniProt Q9Y3E7, whole entry, looked up: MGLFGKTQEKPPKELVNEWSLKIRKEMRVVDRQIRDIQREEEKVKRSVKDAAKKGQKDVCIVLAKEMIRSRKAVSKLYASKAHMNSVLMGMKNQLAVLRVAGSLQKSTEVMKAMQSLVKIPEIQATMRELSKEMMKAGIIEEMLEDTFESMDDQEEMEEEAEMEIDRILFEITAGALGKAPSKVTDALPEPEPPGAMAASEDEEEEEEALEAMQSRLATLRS
UniProt O95674: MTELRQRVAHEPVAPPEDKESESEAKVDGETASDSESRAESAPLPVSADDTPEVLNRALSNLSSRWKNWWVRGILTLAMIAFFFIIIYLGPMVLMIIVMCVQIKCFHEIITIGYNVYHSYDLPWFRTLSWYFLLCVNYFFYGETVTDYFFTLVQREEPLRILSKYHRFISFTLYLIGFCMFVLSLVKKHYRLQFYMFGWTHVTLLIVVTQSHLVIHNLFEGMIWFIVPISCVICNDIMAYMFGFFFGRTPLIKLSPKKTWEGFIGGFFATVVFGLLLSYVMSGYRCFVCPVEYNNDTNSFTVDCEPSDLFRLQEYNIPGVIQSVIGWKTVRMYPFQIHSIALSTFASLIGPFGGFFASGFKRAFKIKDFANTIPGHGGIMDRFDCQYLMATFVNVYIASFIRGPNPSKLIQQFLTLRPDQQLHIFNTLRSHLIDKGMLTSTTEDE
UniProt Q99618: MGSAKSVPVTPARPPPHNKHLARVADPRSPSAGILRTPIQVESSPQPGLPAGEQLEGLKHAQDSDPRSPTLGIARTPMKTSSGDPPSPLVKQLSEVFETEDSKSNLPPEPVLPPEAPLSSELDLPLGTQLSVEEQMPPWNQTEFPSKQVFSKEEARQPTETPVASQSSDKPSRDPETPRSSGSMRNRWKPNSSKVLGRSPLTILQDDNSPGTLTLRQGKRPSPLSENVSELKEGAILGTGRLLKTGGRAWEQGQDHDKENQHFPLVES
UniProt O43633: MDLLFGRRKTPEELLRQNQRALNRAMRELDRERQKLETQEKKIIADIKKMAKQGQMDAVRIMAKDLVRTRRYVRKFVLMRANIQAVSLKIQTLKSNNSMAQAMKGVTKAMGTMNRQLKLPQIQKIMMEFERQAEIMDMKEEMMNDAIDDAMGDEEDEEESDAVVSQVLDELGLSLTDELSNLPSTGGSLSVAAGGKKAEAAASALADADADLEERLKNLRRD
UniProt P23528, whole entry, looked up: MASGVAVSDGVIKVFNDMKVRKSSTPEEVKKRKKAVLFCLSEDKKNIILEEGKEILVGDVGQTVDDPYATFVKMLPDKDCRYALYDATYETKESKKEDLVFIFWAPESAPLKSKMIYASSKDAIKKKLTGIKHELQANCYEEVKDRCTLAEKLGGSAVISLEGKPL
UniProt Q9Y281, whole entry, looked up: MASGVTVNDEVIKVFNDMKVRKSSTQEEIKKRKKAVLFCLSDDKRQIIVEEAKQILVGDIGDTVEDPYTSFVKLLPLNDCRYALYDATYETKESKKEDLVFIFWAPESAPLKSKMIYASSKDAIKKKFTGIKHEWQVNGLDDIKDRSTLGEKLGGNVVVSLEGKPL
UniProt Q8TAP6: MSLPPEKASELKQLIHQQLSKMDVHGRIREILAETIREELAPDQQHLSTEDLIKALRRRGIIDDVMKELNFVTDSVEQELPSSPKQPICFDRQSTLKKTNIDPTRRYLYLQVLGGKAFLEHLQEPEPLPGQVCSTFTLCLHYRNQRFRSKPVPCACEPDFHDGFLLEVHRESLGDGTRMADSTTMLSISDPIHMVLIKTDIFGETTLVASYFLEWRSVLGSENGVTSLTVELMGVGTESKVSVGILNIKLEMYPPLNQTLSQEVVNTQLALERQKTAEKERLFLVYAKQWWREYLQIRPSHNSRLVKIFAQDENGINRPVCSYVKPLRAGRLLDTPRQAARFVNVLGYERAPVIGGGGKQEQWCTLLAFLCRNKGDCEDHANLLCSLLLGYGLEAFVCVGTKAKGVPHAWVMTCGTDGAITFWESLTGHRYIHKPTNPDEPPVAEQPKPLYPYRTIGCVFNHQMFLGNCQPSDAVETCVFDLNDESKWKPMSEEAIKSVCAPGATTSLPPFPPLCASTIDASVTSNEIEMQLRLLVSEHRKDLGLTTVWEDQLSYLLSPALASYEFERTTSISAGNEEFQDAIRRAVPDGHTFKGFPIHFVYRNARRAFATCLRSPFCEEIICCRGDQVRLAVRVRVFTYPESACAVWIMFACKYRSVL
UniProt P49454: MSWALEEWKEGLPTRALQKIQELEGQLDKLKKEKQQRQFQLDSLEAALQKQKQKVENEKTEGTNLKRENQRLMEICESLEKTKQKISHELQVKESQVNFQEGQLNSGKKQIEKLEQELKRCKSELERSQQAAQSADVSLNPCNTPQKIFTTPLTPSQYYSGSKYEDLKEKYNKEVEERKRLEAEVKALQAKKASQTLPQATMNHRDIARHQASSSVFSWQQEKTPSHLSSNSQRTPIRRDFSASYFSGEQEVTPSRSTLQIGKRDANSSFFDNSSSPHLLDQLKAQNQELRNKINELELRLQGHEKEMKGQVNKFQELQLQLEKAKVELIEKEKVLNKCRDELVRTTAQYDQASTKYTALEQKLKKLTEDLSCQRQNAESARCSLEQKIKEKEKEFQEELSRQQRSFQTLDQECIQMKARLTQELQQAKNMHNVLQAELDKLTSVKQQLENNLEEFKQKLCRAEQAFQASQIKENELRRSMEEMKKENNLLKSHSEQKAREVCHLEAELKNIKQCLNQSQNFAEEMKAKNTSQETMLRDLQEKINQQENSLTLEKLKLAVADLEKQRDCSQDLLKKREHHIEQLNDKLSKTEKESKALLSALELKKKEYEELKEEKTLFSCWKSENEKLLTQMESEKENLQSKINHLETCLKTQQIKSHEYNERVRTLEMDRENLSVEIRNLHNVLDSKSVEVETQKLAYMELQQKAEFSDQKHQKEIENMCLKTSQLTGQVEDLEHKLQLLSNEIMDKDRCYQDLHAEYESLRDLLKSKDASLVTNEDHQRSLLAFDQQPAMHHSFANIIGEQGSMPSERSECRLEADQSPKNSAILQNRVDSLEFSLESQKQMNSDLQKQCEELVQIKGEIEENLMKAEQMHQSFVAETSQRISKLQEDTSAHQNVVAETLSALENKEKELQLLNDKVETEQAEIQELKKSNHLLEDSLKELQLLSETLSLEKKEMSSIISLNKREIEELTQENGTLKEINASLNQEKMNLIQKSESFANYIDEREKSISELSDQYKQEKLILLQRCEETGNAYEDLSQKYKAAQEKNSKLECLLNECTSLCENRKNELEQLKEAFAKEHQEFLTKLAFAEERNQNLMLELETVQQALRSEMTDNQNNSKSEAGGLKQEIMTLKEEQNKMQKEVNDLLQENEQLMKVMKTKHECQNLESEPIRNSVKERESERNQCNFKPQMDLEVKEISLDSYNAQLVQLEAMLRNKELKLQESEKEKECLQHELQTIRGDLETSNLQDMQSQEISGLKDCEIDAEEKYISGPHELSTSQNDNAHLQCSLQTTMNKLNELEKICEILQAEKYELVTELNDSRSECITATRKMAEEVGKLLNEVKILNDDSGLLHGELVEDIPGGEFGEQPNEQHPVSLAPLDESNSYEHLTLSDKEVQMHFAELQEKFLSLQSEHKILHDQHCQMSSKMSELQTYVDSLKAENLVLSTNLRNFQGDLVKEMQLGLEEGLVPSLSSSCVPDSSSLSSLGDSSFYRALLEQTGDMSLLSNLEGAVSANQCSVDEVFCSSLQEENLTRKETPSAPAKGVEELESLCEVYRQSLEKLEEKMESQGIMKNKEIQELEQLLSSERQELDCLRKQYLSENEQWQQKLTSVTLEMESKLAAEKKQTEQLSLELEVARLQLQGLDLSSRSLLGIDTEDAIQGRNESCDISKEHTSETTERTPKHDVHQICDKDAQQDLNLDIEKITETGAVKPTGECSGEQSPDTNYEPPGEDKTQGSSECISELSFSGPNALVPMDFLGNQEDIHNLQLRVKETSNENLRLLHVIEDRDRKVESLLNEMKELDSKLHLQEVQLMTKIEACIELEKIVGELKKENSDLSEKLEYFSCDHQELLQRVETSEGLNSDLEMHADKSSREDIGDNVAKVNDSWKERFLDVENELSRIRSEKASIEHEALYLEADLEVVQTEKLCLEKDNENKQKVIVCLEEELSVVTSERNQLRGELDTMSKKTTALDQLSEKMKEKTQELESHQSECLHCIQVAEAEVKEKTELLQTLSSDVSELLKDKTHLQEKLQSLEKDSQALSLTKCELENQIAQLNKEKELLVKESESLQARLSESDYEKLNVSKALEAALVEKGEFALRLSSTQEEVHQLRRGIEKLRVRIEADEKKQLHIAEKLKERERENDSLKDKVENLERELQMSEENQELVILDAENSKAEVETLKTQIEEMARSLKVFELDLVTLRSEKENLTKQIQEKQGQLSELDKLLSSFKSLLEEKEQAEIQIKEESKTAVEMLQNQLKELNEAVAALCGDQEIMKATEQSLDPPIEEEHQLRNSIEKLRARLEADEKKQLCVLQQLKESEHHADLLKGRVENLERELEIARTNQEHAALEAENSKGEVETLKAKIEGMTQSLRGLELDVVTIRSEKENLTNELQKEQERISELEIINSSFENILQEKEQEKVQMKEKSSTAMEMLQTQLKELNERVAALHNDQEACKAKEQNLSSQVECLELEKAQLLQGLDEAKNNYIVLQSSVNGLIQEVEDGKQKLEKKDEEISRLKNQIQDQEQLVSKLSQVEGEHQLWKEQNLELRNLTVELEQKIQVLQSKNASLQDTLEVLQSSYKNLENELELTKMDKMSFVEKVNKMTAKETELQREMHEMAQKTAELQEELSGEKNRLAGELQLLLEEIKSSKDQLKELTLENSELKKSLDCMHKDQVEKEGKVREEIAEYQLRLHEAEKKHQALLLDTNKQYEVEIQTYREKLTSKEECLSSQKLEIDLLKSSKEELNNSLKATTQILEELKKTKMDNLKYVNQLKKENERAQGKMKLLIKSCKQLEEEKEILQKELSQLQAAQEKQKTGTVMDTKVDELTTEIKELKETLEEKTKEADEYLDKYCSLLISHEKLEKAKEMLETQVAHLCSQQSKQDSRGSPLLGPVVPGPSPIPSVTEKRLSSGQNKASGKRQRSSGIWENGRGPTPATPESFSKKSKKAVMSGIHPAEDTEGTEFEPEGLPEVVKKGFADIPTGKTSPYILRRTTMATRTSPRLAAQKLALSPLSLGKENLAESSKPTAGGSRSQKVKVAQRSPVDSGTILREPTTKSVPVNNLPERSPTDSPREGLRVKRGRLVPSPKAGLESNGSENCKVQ
UniProt Q9Y232: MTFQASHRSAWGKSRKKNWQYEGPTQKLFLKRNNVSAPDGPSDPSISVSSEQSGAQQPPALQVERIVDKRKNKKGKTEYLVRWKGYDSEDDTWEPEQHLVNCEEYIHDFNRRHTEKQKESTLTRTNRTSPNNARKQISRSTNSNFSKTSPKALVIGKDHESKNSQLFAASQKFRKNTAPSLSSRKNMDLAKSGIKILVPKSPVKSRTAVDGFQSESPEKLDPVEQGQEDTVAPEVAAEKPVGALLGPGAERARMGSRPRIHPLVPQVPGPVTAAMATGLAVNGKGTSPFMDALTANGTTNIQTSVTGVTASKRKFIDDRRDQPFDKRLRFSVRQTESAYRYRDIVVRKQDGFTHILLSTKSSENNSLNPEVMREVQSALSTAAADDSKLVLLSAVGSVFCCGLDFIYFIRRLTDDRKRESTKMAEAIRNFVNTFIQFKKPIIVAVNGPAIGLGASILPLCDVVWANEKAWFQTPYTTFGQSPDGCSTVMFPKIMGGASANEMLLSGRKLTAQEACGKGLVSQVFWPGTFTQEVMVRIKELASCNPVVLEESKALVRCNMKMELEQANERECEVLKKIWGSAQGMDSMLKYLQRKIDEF
UniProt Q9NX63: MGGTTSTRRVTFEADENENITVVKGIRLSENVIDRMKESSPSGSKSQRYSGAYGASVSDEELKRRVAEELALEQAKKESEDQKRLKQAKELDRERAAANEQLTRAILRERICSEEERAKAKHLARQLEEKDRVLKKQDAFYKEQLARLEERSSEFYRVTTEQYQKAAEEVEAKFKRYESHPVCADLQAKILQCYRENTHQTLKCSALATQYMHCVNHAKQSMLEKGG

[2] = compound: C[C@@H](Oc1cc(-c2cnn(C3CCNCC3)c2)cnc1N)c1c(Cl)ccc(F)c1Cl [crizotinib]
Outline: as §1

[3] = compound: C[C@@H]1COCCN1C2=NC(=NC(=C2)C3(CC3)S(=O)(=O)C)C4=C5C=CNC5=CC=C4
Outline: as §1

[4] = compound: C[C@H](C1=CC=C(C=C1)C(=O)NC2=C3C=CNC3=NC=C2)N
Outline: as §1

[5] = compound: C[C@H](Nc1ncnc2nc[nH]c12)c1cc2cccc(Cl)c2c(=O)n1-c1ccccc1 [duvelisib]
Outline: as §1

[6] = compound: Cc1cc(Nc2cc(CN3CCOCC3)c3nc(C)c(Cc4ccc(Cl)cc4F)n3n2)n[nH]1 [gandotinib]
Outline: as §1

[7] = compound: Cc1cc(Nc2cc(N3CCN(C)CC3)nc(Sc3ccc(NC(=O)C4CC4)cc3)n2)n[nH]1 [tozasertib]
Outline: as §1

[8] = compound: Cc1cc(SCc2sc(-c3ccc(C(F)(F)F)cc3)nc2C)ccc1OCC(=O)O
Outline: as §1

[9] = compound: Cc1ccc(-n2nc(C(C)(C)C)cc2NC(=O)Nc2ccc(OCCN3CCOCC3)c3ccccc23)cc1 [doramapimod]
Outline: as §1

[10] = compound: Cc1ccc(C(=O)N(CCCN)[C@@H](c2nc3cc(Cl)ccc3c(=O)n2Cc2ccccc2)C(C)C)cc1 [ispinesib]
Outline: as §1

[11] = compound: Cc1ccc(NC(=O)c2ccc(CN3CC[C@H](N(C)C)C3)c(C(F)(F)F)c2)cc1Nc1nccc(-c2cncnc2)n1 [bafetinib]
Outline: as §1

[12] = compound: Cc1cccc(CC(=O)N2CCc3c2ccc(-c2cn(C)c4ncnc(N)c24)c3F)n1
Outline: as §1

[13] = compound: Cc1cn(-c2cc(NC(=O)c3ccc(C)c(Nc4nccc(-c5cccnc5)n4)c3)cc(C(F)(F)F)c2)cn1 [nilotinib]
Outline: as §1

[14] = compound: Cc1nc(Nc2n[nH]c3c2CN(C(=O)N[C@H](CN(C)C)c2ccccc2)C3(C)C)c2sccc2n1
Outline: as §1

[15] = compound: Cc1nc(Nc2ncc(C(=O)Nc3c(C)cccc3Cl)s2)cc(N2CCN(CCO)CC2)n1 [dasatinib]
Outline: as §1

[16] = compound: Cc1ncc(-c2ccnc(Nc3ccc(S(C)(=O)=O)cc3)n2)n1C(C)C
Outline: as §1

[17] = compound: Cn1cc(-c2ccc3c(c2)CCN3C(=O)Cc2cccc(C(F)(F)F)c2)c2c(N)ncnc21
Outline: as §1

[18] = compound: Cn1cc(-c2ccc3nnc(C(F)(F)c4ccc5ncccc5c4)n3n2)cn1
Outline: as §1

[19] = compound: Cn1cncc1[C@@](N)(c1ccc(Cl)cc1)c1ccc2c(c1)c(-c1cccc(Cl)c1)cc(=O)n2C [tipifarnib]
Outline: as §1

[20] = compound: FC(F)(F)c1ccc(/C=C/c2nc(COc3ccc(CCCCn4ccnn4)cc3)co2)cc1 [mubritinib]
Outline: as §1

Measured: log2 fold change

CFAP298 (UniProt P57076)
inactive: [1] -0.15 | [2] -0.128 | [3] -0.227 | [4] 0.306 | [5] -0.099 | [6] 0.053 | [7] 0.257 | [8] 0.109 | [9] 0.202 | [10] -0.244 | [11] 0.057 | [12] 0.178 | [13] -0.04 | [14] -0.013 | [15] -0.072 | [16] 0.043 | [17] -0.104 | [18] -0.038 | [19] -0.047 | [20] -0.029

CHKB (UniProt Q9Y259)
inactive: [1] -0.018 | [2] 0.056 | [3] 0.083 | [4] 0.016 | [5] 0.097 | [6] -0.113 | [7] -0.1 | [8] 0 | [9] 0.037 | [10] 0.049 | [11] -0.087 | [12] -0.141 | [13] 0.096 | [14] -0.142 | [15] 0.032 | [16] 0.029 | [17] 0.131 | [18] 0.015 | [19] -0.008 | [20] 0.061

CDC73 (UniProt Q6P1J9)
inactive: [1] 0.136 | [2] 0.183 | [3] -0.06 | [4] -0.093 | [5] -0.012 | [6] 0.131 | [7] -0.02 | [8] -0.011 | [9] -0.002 | [10] -0.074 | [11] 0.008 | [12] -0.366 | [13] -0.206 | [14] -0.106 | [15] -0.039 | [16] -0.053 | [17] -0.393 | [18] -0.037 | [19] -0.08 | [20] -0.139

CHMP3 (UniProt Q9Y3E7)
inactive: [1] 0.01 | [2] -0.017 | [3] 0.004 | [4] -0.116 | [5] 0.104 | [6] 0.022 | [7] -0.001 | [8] -0.047 | [9] 0.001 | [10] -0.065 | [11] -0.138 | [12] -0.014 | [13] 0.011 | [14] -0.025 | [15] -0.051 | [16] -0.017 | [17] 0.035 | [18] 0.029 | [19] 0.007 | [20] 0.118

CDS2 (UniProt O95674)
inactive: [1] 0.008 | [2] 0.02 | [3] -0.018 | [4] 0.04 | [5] 0.074 | [6] -0.047 | [7] 0.045 | [8] 0.023 | [9] 0.027 | [10] 0.006 | [11] -0.068 | [12] 0.008 | [13] 0.022 | [14] -0.049 | [15] 0 | [16] 0.002 | [17] 0.016 | [18] 0.002 | [19] 0 | [20] 0.033

CDCA3 (UniProt Q99618)
inactive: [1] 0.028 | [2] 0.034 | [3] 0.063 | [4] -0.043 | [5] 0.043 | [6] 0.011 | [7] -0.042 | [8] -0.069 | [9] -0.016 | [10] -0.044 | [11] -0.057 | [12] -0.074 | [13] 0.03 | [14] 0.001 | [15] -0.004 | [16] 0.003 | [17] 0.054 | [18] 0.007 | [19] 0.022 | [20] 0.025

CHMP2A (UniProt O43633)
inactive: [1] -0.01 | [2] -0.051 | [3] 0.013 | [4] -0.104 | [5] 0.006 | [6] -0.053 | [7] -0.004 | [8] 0.005 | [9] -0.007 | [10] 0 | [11] -0.013 | [12] 0.035 | [13] 0.021 | [14] -0.004 | [15] -0.005 | [16] 0.004 | [17] 0.007 | [18] 0.027 | [19] 0.009 | [20] 0.066

CFL1 (UniProt P23528)
inactive: [1] -0.01 | [2] 0.046 | [3] 0.015 | [4] -0.189 | [5] -0.025 | [6] -0.038 | [7] 0.086 | [8] -0.001 | [9] -0.004 | [10] 0.118 | [11] -0.027 | [12] 0.02 | [13] 0.067 | [14] -0.006 | [15] 0.066 | [16] 0.022 | [17] 0.025 | [18] -0.015 | [19] -0.084 | [20] 0.062

CEP170 (UniProt Q5SW79)
inactive: [1] 0.009 | [2] -0.12 | [3] -0.098 | [4] 0.166 | [5] -0.085 | [6] 0.057 | [7] -0.04 | [8] -0.016 | [9] 0.203 | [10] -0.169 | [11] 0.079 | [12] -0.012 | [13] 0.117 | [14] -0.052 | [15] 0.035 | [16] -0.175 | [17] -0.056 | [18] -0.04 | [19] 0.066 | [20] -0.05

CFL2 (UniProt Q9Y281)
inactive: [1] 0.065 | [2] 0.083 | [3] 0.099 | [4] -0.089 | [5] 0.099 | [6] 0.01 | [7] 0.061 | [8] 0.031 | [9] -0.016 | [10] 0.168 | [11] -0.007 | [12] 0.017 | [13] 0.042 | [14] 0.041 | [15] 0.006 | [16] -0.01 | [17] 0.087 | [18] 0.028 | [19] -0.041 | [20] 0.03

CEP76 (UniProt Q8TAP6)
inactive: [1] 0.006 | [2] 0.055 | [3] 0.011 | [4] 0.084 | [5] 0.081 | [6] 0.019 | [7] -0.018 | [8] -0.008 | [9] -0.016 | [10] 0.065 | [11] -0.004 | [12] 0.018 | [13] -0.016 | [14] -0.009 | [15] 0.014 | [16] -0.01 | [17] -0.078 | [18] 0.018 | [19] 0.08 | [20] 0.045

CENPF (UniProt P49454)
inactive: [1] -0.014 | [2] 0.043 | [3] -0.105 | [4] 0.084 | [5] -0.079 | [6] 0.012 | [7] 0.091 | [8] -0.059 | [9] 0.101 | [10] -0.001 | [11] -0.043 | [12] -0.004 | [13] 0.019 | [14] 0.013 | [15] 0.058 | [16] -0.161 | [17] -0.122 | [18] -0.065 | [19] 0.142 | [20] -0.012

CDYL (UniProt Q9Y232)
inactive: [1] 0.051 | [2] 0.007 | [3] -0.046 | [4] 0.057 | [5] -0.007 | [6] 0.022 | [7] -0.042 | [8] -0.017 | [9] -0.019 | [10] 0.022 | [11] -0.096 | [12] 0.001 | [13] 0.049 | [14] -0.062 | [15] 0.055 | [16] -0.073 | [17] 0.021 | [18] -0.024 | [19] 0.103 | [20] 0.044

Retrieved one by one from the entries so far, 2 records:
CEP76 (UniProt Q8TAP6)
inactive: [1] 0.006 | [2] 0.055 | [3] 0.011 | [4] 0.084 | [5] 0.081 | [6] 0.019 | [7] -0.018 | [8] -0.008 | [9] -0.016 | [10] 0.065 | [11] -0.004 | [12] 0.018 | [13] -0.016 | [14] -0.009 | [15] 0.014 | [16] -0.01 | [17] -0.078 | [18] 0.018 | [19] 0.08 | [20] 0.045

CENPF (UniProt P49454)
inactive: [1] -0.014 | [2] 0.043 | [3] -0.105 | [4] 0.084 | [5] -0.079 | [6] 0.012 | [7] 0.091 | [8] -0.059 | [9] 0.101 | [10] -0.001 | [11] -0.043 | [12] -0.004 | [13] 0.019 | [14] 0.013 | [15] 0.058 | [16] -0.161 | [17] -0.122 | [18] -0.065 | [19] 0.142 | [20] -0.012

Remaining list, next part

CHCHD3 (UniProt Q9NX63)
inactive: [1] 0.009 | [2] -0.01 | [3] -0.011 | [4] -0.047 | [5] 0.058 | [6] -0.019 | [7] 0.034 | [8] 0.016 | [9] 0.006 | [10] -0.041 | [11] -0.057 | [12] -0.014 | [13] -0.016 | [14] 0.022 | [15] 0.012 | [16] -0.008 | [17] 0.042 | [18] 0.037 | [19] 0.02 | [20] 0.024

CFAP20 (UniProt Q9Y6A4)
inactive: [1] 0.003 | [2] 0.033 | [3] -0.168 | [4] 0.113 | [5] -0.029 | [6] 0.062 | [7] 0.072 | [8] 0.01 | [9] 0.117 | [10] -0.101 | [11] 0.048 | [12] 0.013 | [13] 0.023 | [14] -0.102 | [15] 0.049 | [16] -0.048 | [17] -0.156 | [18] -0.053 | [19] -0.029 | [20] -0.109

From the supplement of paper PMC10849652
